Values of other authors, collected in patent US20020193323A1, “Compositions and methods for promoting a healthy cardiovascular system and enhancing blood flow” (priority 2000, published 2002).
For some of these results: At least one read-out could not be matched to a standard name with certainty. For some of these results: At least one compound was matched to its structure with a doubt left.

What was measured:
[1] = compared with selenomethionine, the most bioavailable form of selenium
[2] = tested on: men and women with a recent history of heart attack; conditions: 4,158 men and women with a recent history of heart attack

C[Se]CC[C@@H](N)C(=O)O [D-selenomethionine]
bioavailability relative to selenomethionine [1]: one-fifth

CC[C@H](C)C(=O)O[C@H]1C[C@H](O)C=C2C=C[C@H](C)[C@H](CC[C@@H](O)C[C@@H](O)CC(=O)O)[C@H]21 [pravastatin]
lowering LDL cholesterol [2]: 28% | lowering heart attacks [2]: 25% | lowering strokes [2]: 28%
